Results taken from patent EP1670820B1, “ANTIGENS FOR AN EAST COAST FEVER VACCINE” (International Livestock Research Institute ( ILRI), priority 2003, dated 2005).
Part of at least one peptide drawing is inferred or uncertain, most often the ends. Where a SMILES comes first, the peptide text is derived from it. Where no end group is shown, it is not given here.

Assays:
[1] = system: CD8+ polyclonal CTL lines from BW002, BW013, BW014 and D409 CTL clone #10; assay: IFN-gamma elispot: CTL recognition of synthetic peptide pulsed autologous iSF (Tp2 epitope mapping); format: cell-based, cattle; conditions: peptides at 1ug/ml
[2] = system: peptide pulsed autologous iSF; assay: 51Chromium release assay: CTL lysis of peptide pulsed autologous iSF; format: cell-based, cattle; conditions: autologous iSF pulsed overnight with peptide; BW014 polyclonal CD8+ CTL line (FIG. 9)
[3] = w7 restricted D409 CTL clone #10

Molecule | IFN-gamma elispot response to peptide pulsed autologous iSF ([1]; BW013 CD8+ polyclonal CTL line) | IFN-gamma elispot response to peptide pulsed autologous iSF ([1]; BW014 CD8+ polyclonal CTL line) | lysis of iSF pulsed with peptide [2] [%] | IFN-gamma elispot response to peptide pulsed autologous iSF [1, 3]
QSLVCVLMK [SEQ ID NO: 4] | responded | responded | ~100 | –
KSSHGMGKVGK [SEQ ID NO: 6] | responded | – | – | –
CSCC[C@H](NC(=O)[C@H](CC(C)C)NC(=O)[C@@H](NC(=O)[C@H](CS)NC(=O)[C@@H](NC(=O)[C@H](CC(C)C)NC(=O)[C@H](CO)NC(=O)[C@H](CCC(N)=O)NC(=O)[C@H](C)NC(=O)[C@H](Cc1ccccc1)NC(=O)[C@H](CS)NC(=O)[C@@H](N)CCCCN)C(C)C)C(C)C)C(=O)O [peptide #77] (H-KCFAQSLVCVLM-OH) | – | – | – | responded
FAQSLVCVL [SEQ ID NO:5] | – | – | – | recognized
